Data taken from paper PMC11602245 (Journal of Peptide Science, 2024).
One purity is given for all peptides; the source may state it once.

Experiment: general procedure: Fmoc solid-phase peptide synthesis; H-L-Cys(Trt)-2CT preloaded resin (0.71 mmol/g); HATU
Conditions: whole synthesis; for final HPLC purity: RP-HPLC at 220 nm (HPLC-MS system), scale of the general procedure 0.030 mmol; for isolated yield: scale 0.030 mmol

[DOTA,Asn^5‐Ψ[Tz]‐Phe^6,DTrp^8,N‐Me‐Phe^11]SST‐14
final HPLC purity: >95%
isolated yield: 14%

[DOTA,Asn^5‐Ψ[Tz]‐Phe^6,DTrp^8,β‐Phe^11]SST‐14
final HPLC purity: >95%
isolated yield: 32%

[DOTA,Asn^5‐Ψ[Tz]‐Phe^6,DTrp^8,Thr^10‐Ψ[NH]‐Phe^11]SST‐14
final HPLC purity: >95%
isolated yield: 27%

[DOTA,Asn^5‐Ψ[Tz]‐Phe^6,DTrp^8]SST‐14
final HPLC purity: >95%
isolated yield: 35%
